# Laboratory results as given in the supplement of paper PMC8728848.
# This is one part of the list.
# Legend:
# Test in all cases: glycan array binding signal (z-score within array); higher = stronger binding
# Settings in all cases: glycan notation: IUPAC condensed, linker removed
# [1] = biological target: Neu5Ac(a2-6)Gal(b1-4)GlcNAc(b1-6)[Gal(b1-3)GlcNAc(b1-3)]Gal(b1-4)Glc
# In short: (§1)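 The binding signal is a Z-score computed within each array and averaged over linkers. Arrays of the same protein sequence at different concentrations or buffers were also averaged together. Data originate from 3228 arrays in the Consortium for Functional Glycomics database, kept only where the protein sequence was available.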
# [2] = biological target: Neu5Ac(a2-6)Gal(b1-4)GlcNAc(b1-6)[Gal(b1-3)]GalNAc
# In short: as §1
# [3] = biological target: Neu5Ac(a2-6)Gal(b1-4)GlcNAc6S
# In short: as §1
# Neu5Ac(a2-6)GalNAc = biological target: Neu5Ac(a2-6)GalNAc
# In short: as §1
# [4] = biological target: Neu5Ac(a2-6)GalNAc(b1-4)GlcNAc
# In short: as §1
# [5] = biological target: Neu5Ac(a2-6)GalNAc(b1-4)GlcNAc6S
# In short: as §1
# [6] = biological target: Neu5Ac(a2-6)GlcNAc(b1-4)GlcNAc
# In short: as §1
# [7] = biological target: Neu5Ac(a2-6)GlcNAc(b1-4)GlcNAc(b1-4)GlcNAc
# In short: as §1
# Neu5Ac(a2-8)Neu5Ac = biological target: Neu5Ac(a2-8)Neu5Ac
# In short: as §1
# [8] = biological target: Neu5Ac(a2-8)Neu5Ac(a2-3)Gal(b1-3)GalNAc(b1-4)[Neu5Ac(a2-3)]Gal(b1-4)Glc
# In short: as §1
# [9] = biological target: Neu5Ac(a2-8)Neu5Ac(a2-3)Gal(b1-3)GalNAc(b1-4)[Neu5Ac(a2-8)Neu5Ac(a2-3)]Gal(b1-4)Glc
# In short: as §1
# [10] = biological target: Neu5Ac(a2-8)Neu5Ac(a2-3)Gal(b1-4)Glc
# In short: as §1
# [11] = biological target: Neu5Ac(a2-8)Neu5Ac(a2-3)Gal(b1-4)GlcNAc
# In short: as §1
# [12] = biological target: Neu5Ac(a2-8)Neu5Ac(a2-3)[Gal(b1-3)GalNAc(b1-4)]Gal(b1-4)Glc
# In short: as §1
# [13] = biological target: Neu5Ac(a2-8)Neu5Ac(a2-3)[GalNAc(b1-4)]Gal(b1-4)Glc
# In short: as §1
# [14] = biological target: Neu5Ac(a2-8)Neu5Ac(a2-8)Neu5Ac
# In short: as §1
# [15] = biological target: Neu5Ac(a2-8)Neu5Ac(a2-8)Neu5Ac(a2-3)Gal(b1-4)Glc
# In short: as §1
# [16] = biological target: Neu5Ac(a2-8)Neu5Ac(a2-8)Neu5Ac(a2-3)[Gal(b1-3)GalNAc(b1-4)]Gal(b1-4)Glc
# In short: as §1
# [17] = biological target: Neu5Ac(a2-8)Neu5Ac(a2-8)Neu5Ac(a2-3)[GalNAc(b1-4)]Gal(b1-4)Glc
# In short: as §1
# [18] = biological target: Neu5Ac(a2-8)Neu5Ac(a2-8)Neu5Ac(a2-8)Neu5Ac(a2-3)[GalNAc(b1-4)]Gal(b1-4)Glc
# In short: as §1
# [19] = biological target: Neu5Ac(a2-8)Neu5Gc(a2-3)Gal(b1-4)GlcNAc
# In short: as §1
# [20] = biological target: Neu5Ac(b2-6)Gal(b1-4)GlcNAc
# In short: as §1
# Neu5Ac(b2-6)GalNAc = biological target: Neu5Ac(b2-6)GalNAc
# In short: as §1
# [21] = biological target: Neu5Ac9Ac(a2-3)Gal(b1-4)GlcNAc
# In short: as §1
# [22] = biological target: Neu5Ac9Ac(a2-6)Gal(b1-4)GlcNAc
# In short: as §1
# [23] = biological target: Neu5Gc(a2-3)Gal(b1-3)GlcNAc
# In short: as §1
# [24] = biological target: Neu5Gc(a2-3)Gal(b1-3)[Fuc(a1-4)]GlcNAc
# In short: as §1
# Neu5Gc(a2-3)Gal(b1-4)Glc = biological target: Neu5Gc(a2-3)Gal(b1-4)Glc
# In short: as §1
# [25] = biological target: Neu5Gc(a2-3)Gal(b1-4)GlcNAc
# In short: as §1
# [26] = biological target: Neu5Gc(a2-3)Gal(b1-4)GlcNAc(b1-3)Gal(b1-4)GlcNAc(b1-2)Man(a1-3)[Neu5Gc(a2-3)Gal(b1-4)GlcNAc(b1-3)Gal(b1-4)GlcNAc(b1-2)Man(a1-6)]Man(b1-4)GlcNAc(b1-4)GlcNAc
# In short: as §1
# [27] = biological target: Neu5Gc(a2-3)Gal(b1-4)[Fuc(a1-3)]GlcNAc
# In short: as §1
# [28] = biological target: Neu5Gc(a2-6)Gal(b1-4)GlcNAc
# In short: as §1
# Neu5Gc(a2-6)GalNAc = biological target: Neu5Gc(a2-6)GalNAc
# In short: as §1
# [29] = biological target: Neu5Gc(a2-8)Neu5Ac(a2-3)Gal(b1-4)GlcNAc
# In short: as §1
# [30] = biological target: Neu5Gc(a2-8)Neu5Gc(a2-3)Gal(b1-4)GlcNAc
# In short: as §1
# [31] = biological target: Neu5Gc(a2-8)Neu5Gc(a2-3)Gal(b1-4)GlcNAc(b1-3)Gal(b1-4)GlcNAc
# In short: as §1
# [32] = biological target: Neu5Gc(a2-8)Neu5Gc(a2-6)Gal(b1-4)GlcNAc
# In short: as §1
# [33] = biological target: Neu5Gc(b2-6)Gal(b1-4)GlcNAc
# In short: as §1
binder,measurement,setting,value
Epf (Streptococcus pyogenes) (protein) GDHGPEFNGVMVVKAAEAEELPDDLMNFKGTWEVSADGSSGRFFSKGATDSYVFHLIPAKDVKKPGWREHNEVKDSYIKIDKQSIAARYKTSTTAPYSVAFKVNTKSLIKDHDYKITFEQGQIASGITVDYRIGSAFNKTTDDSFKISDESKYASNVKIEGEEQGFKQREQGDKTISFRTLKEGPMSLVLLSKVEKKPQGDLDVEFKNLKIIDVTNPSQLDKGVAYVGNKNVQLTLKSDDGRTNFEGDEISLFNSRGELLQTVTVTKDQQNPISITLSEDQAKSLKNKEKLKVSIKQKQSKKTSKDFFFEVGIDPKVEAKQKEKLLELDKVKKQIEDSINGDAWLPEKPVDLQGDHGLSAWSHPQFEK,glycan array binding signal (z-score),[1],-0.066
same,glycan array binding signal (z-score),[2],-0.596
same,glycan array binding signal (z-score),[3],-0.463
same,glycan array binding signal (z-score),Neu5Ac(a2-6)GalNAc,-1.81
same,glycan array binding signal (z-score),[4],-0.834
same,glycan array binding signal (z-score),[5],-1.72
same,glycan array binding signal (z-score),[6],-1.5
same,glycan array binding signal (z-score),[7],0.539
same,glycan array binding signal (z-score),Neu5Ac(a2-8)Neu5Ac,0.246
same,glycan array binding signal (z-score),[8],-1.52
same,glycan array binding signal (z-score),[9],1.22
same,glycan array binding signal (z-score),[10],0.281
same,glycan array binding signal (z-score),[11],0.505
same,glycan array binding signal (z-score),[12],-0.085
same,glycan array binding signal (z-score),[13],-0.115
same,glycan array binding signal (z-score),[14],-0.377
same,glycan array binding signal (z-score),[15],0.188
same,glycan array binding signal (z-score),[16],-1.46
same,glycan array binding signal (z-score),[17],-0.346
same,glycan array binding signal (z-score),[18],0.295
same,glycan array binding signal (z-score),[19],-0.244
same,glycan array binding signal (z-score),[20],0.577
same,glycan array binding signal (z-score),Neu5Ac(b2-6)GalNAc,1.59
same,glycan array binding signal (z-score),[21],-1.12
same,glycan array binding signal (z-score),[22],-1.44
same,glycan array binding signal (z-score),[23],-0.581
same,glycan array binding signal (z-score),[24],0.995
same,glycan array binding signal (z-score),Neu5Gc(a2-3)Gal(b1-4)Glc,0.325
same,glycan array binding signal (z-score),[25],0.422
same,glycan array binding signal (z-score),[26],0.343
same,glycan array binding signal (z-score),[27],0.984
same,glycan array binding signal (z-score),[28],-0.146
same,glycan array binding signal (z-score),Neu5Gc(a2-6)GalNAc,-0.652
same,glycan array binding signal (z-score),[29],-0.143
same,glycan array binding signal (z-score),[30],-1.11
same,glycan array binding signal (z-score),[31],-0.239
same,glycan array binding signal (z-score),[32],0.764
same,glycan array binding signal (z-score),[33],1.03

# As a working copy, part of the list above:
binder,measurement,setting,value
Epf (Streptococcus pyogenes) (protein) GDHGPEFNGVMVVKAAEAEELPDDLMNFKGTWEVSADGSSGRFFSKGATDSYVFHLIPAKDVKKPGWREHNEVKDSYIKIDKQSIAARYKTSTTAPYSVAFKVNTKSLIKDHDYKITFEQGQIASGITVDYRIGSAFNKTTDDSFKISDESKYASNVKIEGEEQGFKQREQGDKTISFRTLKEGPMSLVLLSKVEKKPQGDLDVEFKNLKIIDVTNPSQLDKGVAYVGNKNVQLTLKSDDGRTNFEGDEISLFNSRGELLQTVTVTKDQQNPISITLSEDQAKSLKNKEKLKVSIKQKQSKKTSKDFFFEVGIDPKVEAKQKEKLLELDKVKKQIEDSINGDAWLPEKPVDLQGDHGLSAWSHPQFEK,glycan array binding signal (z-score),[6],-1.5
same,glycan array binding signal (z-score),[7],0.539
